Data as given in PubChem BioAssay AID1508588 (Peter MacCallum Cancer Centre, 2020).
Purpose: 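Knock-downs boosting vemurafenib effects on melanoma cell growth or lactate release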 (primary screen). Cells: human WM266.4 melanoma cells (BRAF V600 mutant). Reagents: siRNA pool against human genes, 40 nM. Time to read-out: 96 h from transfection to read-out. Treatment: vemurafenib 300 nM (about IC25), added 48 h after transfection, for 48 h; comparison arm got DMSO vehicle only. Measured: 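Ratios to non-targeting siRNA for cell gain, counted as DAPI nuclei after minus before drug and averaged over two replicates, and for absorbance-read medium lactate per cell; both binned into fold-change classes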. Direction: cell gain with vemurafenib: higher = more cell gain than with non-targeting siRNA; lactate per cell with vemurafenib: higher = more lactate made per cell. Call rule: 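a knock-down counts as enhancing when its fold-change classes with vehicle and with vemurafenib, taken together, show a stronger drug effect on cell gain or lactate per cell; exact class pairs not stated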. Calls: active = enhances vemurafenib effect; inactive = no enhancement seen.
This is an unselected part of about 18,000 reagents. Over the whole deposit, 790 (4.4%) are marked active. 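Calls rest on a combination of fold-change classes in drug and vehicle arms, not all shown here.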 Unmarked entries are inactive. Reagents against one gene are numbered here.

no.	gene	pool no.	cell gain with vemurafenib	lactate per cell with vemurafenib
1	SLC25A31 (GeneID 83447)	1	1	0.72
2	TRAM2 (GeneID 9697)	1	0.16	0.68
3	BDNF (GeneID 627)	1	0.67	0.52
4	OTOF (GeneID 9381)	1	0.58	0.56
5	RAC3 (GeneID 5881)	1	1.01	0.82
6	CNTN1 (GeneID 1272)	1	0.65	0.76
7	UEVLD (GeneID 55293)	1	0.07	0.76
8	TRIM43B (GeneID 653192)	1	1	0.82
9	EEF1A2 (GeneID 1917)	1	1.03	0.68
10	PALM2AKAP2 (GeneID 445815)	1	0.72	1.25
11	PALM2AKAP2 (GeneID 445815)	2	0.92 (active)	0.66
12	PALM2AKAP2 (GeneID 445815)	3	0.76	0.75
13	NAALADL2 (GeneID 254827)	1	0.49	1.1
14	DAZL (GeneID 1618)	1	0.52	0.99
15	USP46 (GeneID 64854)	1	1.26	0.54
16	SSR1 (GeneID 6745)	1	0.44	0.86
17	PLEKHG2 (GeneID 64857)	1	0.85	0.9
18	DNAJB9 (GeneID 4189)	1	0.63	1.15
19	IFI6 (GeneID 2537)	1	0.42	1.19
20	ACVR2A (GeneID 92)	1	0.95	0.28
21	HLA-DQA1 (GeneID 3117)	1	0.56	0.62
22	RAD51D (GeneID 5892)	1	0.65	1.28
23	BRME1 (GeneID 79173)	1	0.68	2
24	ZC3H11D (GeneID 160419)	1	1.21	0.68
25	ABHD17C (GeneID 58489)	1	0.28	1.02
26	MAP3K12 (GeneID 7786)	1	0.41	1.44
27	IRF5 (GeneID 3663)	1	0.31	1.26
28	H4C16 (GeneID 121504)	1	0.12	0.51
29	ATP8B4 (GeneID 79895)	1	0.74	0.75
30	CCDC157 (GeneID 550631)	1	0.07	1.24
31	SOCS7 (GeneID 30837)	1	-0.09	2.03
32	SYP (GeneID 6855)	1	0.77	0.76
33	PTPRO (GeneID 5800)	1	0.94	0.93
34	CHD3 (GeneID 1107)	1	0.26	1.36
35	PLEKHA8P1 (GeneID 51054)	1	0.46	0.87
36	ATOH1 (GeneID 474)	1	1.14	1.02
37	POFUT2 (GeneID 23275)	1	0.79	0.47
38	HOXA11 (GeneID 3207)	1	0.99	0.5
39	MRPS17 (GeneID 51373)	1	0.76	1.15
40	IGBP1 (GeneID 3476)	1	0.82	1.25
41	POLD1 (GeneID 5424)	1	0.9	0.71
42	TIMM13 (GeneID 26517)	1	0.51	0.64
43	DAPK1 (GeneID 1612)	1	0.36	1.46
44	PLA2G7 (GeneID 7941)	1	0.45	1.77
45	FGF16 (GeneID 8823)	1	0.81	1.04
46	PRDM14 (GeneID 63978)	1	0.9	0.71
47	GMPR2 (GeneID 51292)	1	0.4	1.65
48	CHD5 (GeneID 26038)	1	1.03	0.66
49	PRKACG (GeneID 5568)	1	0.32	0.66
50	STOML1 (GeneID 9399)	1	0.16	3
51	NFATC2 (GeneID 4773)	1	0.5	0.85
52	SPHK2 (GeneID 56848)	1	0.98	1.1
53	SLC41A3 (GeneID 54946)	1	0.18	1.29
54	ANKRD20A5P (GeneID 440482)	1	0.39	0.93
55	ABCB4 (GeneID 5244)	1	0.16	0.92
56	CDRT15 (GeneID 146822)	1	0.83	0.47
57	SCLY (GeneID 51540)	1	0.76	1.9

Targets above whose gene name starts with T or t (3):
gene	pool no.	cell gain with vemurafenib	lactate per cell with vemurafenib
TRAM2 (GeneID 9697)	1	0.16	0.68
TRIM43B (GeneID 653192)	1	1	0.82
TIMM13 (GeneID 26517)	1	0.51	0.64
